# From publication PMC9037358 (RSC Advances, 2021)
# Assays:
# Format in all cases: cell-based
# [1] = MTT cytotoxicity assay, normal breast cell line; details: human, MCF 10A normal breast cells
# MDA-MB-231 = experiment: MTT cytotoxicity assay; details: Homo sapiens, MDA-MB-231, 48 h, read-out: Cytotoxicity IC50 μM ± S.D. MDA-MB-231
# MCF-7 = experiment: MTT cytotoxicity assay; details: Homo sapiens, MCF7, 48 h, read-out: Cytotoxicity IC50 μM ± S.D. MCF-7
smiles,measurement,setting,value
"CN[C@@H]1C[C@H]2O[C@@](C)([C@@H]1OC)n1c3ccccc3c3c4c(c5c6ccccc6n2c5c31)C(=O)NC4 [Staurosporine, reference compound]",IC50 at 48 h,[1],13 ± 0.5 µM
same,IC50,MDA-MB-231,7.67 ± 0.3 µM
same,IC50,MCF-7,5.89 ± 0.2 µM
